Some of the results follow. These are further read-outs of the screen, such as a control signal, another cell line or another target. No call is given for them. The list favours compounds with an active or inconclusive main result. Words in brackets tell the shape of the fitted curve; partial curves, single points and poor fits give uncertain potencies.
Assay: qHTS Assay for Lipid Storage Modulators in Drosophila S3 Cells;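 for cell number change: cells counted by Cell Tracker Red CMTPX staining in the red channel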
Conditions: BODIPY lipid droplet fluorescence, 18-24 h; for cell number change: measured here: cell count max response, cells fed with added oleic acid
Method in brief: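 Drosophila S3 cells got compounds at several concentrations plus oleic acid (400 uM solution). Laser-scanning cytometry with 488 nm excitation read lipid droplets at 500-530 nm and cells at 575-640 nm. Percent activity was relative to 20 uM Triacsin C.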

[1] = measured here: lipid fluorescence (Fed channel) AC50, cells fed with added oleic acid
[2] = measured here: cell number channel AC50, cells fed with added oleic acid

Row | SMILES | cell number change [%] | AC50 [1] | AC50 [2]
1 | CC(C)(C)CC(=O)Nc1ccc(S(=O)(=O)N2CCCC2)cc1 | -28.5 | 18.4 µM [falling, partial curve] | –
2 | CC(CNC(=O)c1ccc(OC2CCN(Cc3ccccn3)CC2)cc1)Oc1cccnc1 (configuration not stated) | -10.4 | – | –
3 | COc1ccc(/C=N/NC(=O)c2ccc(NC(=O)c3ccccc3Br)cc2)cc1 | -42.7 | 18.4 µM [falling, partial curve, poor fit] | 20.6 µM [falling, partial curve, poor fit]
4 | COc1ccc(-n2c(Cn3c(=O)sc4ccccc43)nnc2SCC(=O)N2CCOCC2)cc1 | -10.7 | 29.1 µM [falling, single point] | –
5 | OCCN(Cc1ccccc1)Cc1ccccc1O | -35.1 | 7.31 µM [falling, partial curve] | –
6 | CCOC(=O)[C@@H]1[C@H]2COc3ccccc3[C@@H]2N2C(=O)N(c3cccc(Cl)c3)C(=O)[C@@]12C | -15.9 | – | –
7 | CCOC(=O)c1c(NC(=O)COC)sc2c1CCCC2 | – | 1.46 µM [rising, partial curve] | –
8 | CNC(=O)C(C)c1ncc(C(F)(F)F)cc1Cl (configuration not stated) | -14.5 | 1.3 µM [rising, full curve, poor fit] | –
9 | CCOC(=O)CC1C(C(=O)OCC)ON2OC(C(=O)OC)C(C(=O)OCC)C12 (configuration not stated) | -13.1 | 32.6 µM [falling, single point] | –
10 | O=C(CSc1nnnn1C1CCCCC1)Nc1ccc2c(c1)OCO2 | 23.6 | 2.59 µM [rising, partial curve] | –
11 | CC(CNC(=O)CN1C(=O)NC2(CCCCC2)C1=O)c1ccccc1 (configuration not stated) | 4.17 | 6.51 µM [rising, single point] | –
12 | CCOC(=O)c1ccc(N2C(=O)CC(N3CCOCC3)C2=O)cc1 (configuration not stated) | -0.419 | – | –
13 | CCOc1ccc(NC(=O)CC2C(=O)N(c3ccccc3)C(=O)N2CCc2cccs2)cc1 (configuration not stated) | – | 1.03 µM [rising, partial curve] | –
14 | COc1ccc(OCC(=O)NNC(=O)C2CCN(c3ncnc4sc(C)c(C)c34)CC2)cc1 | 13.1 | 1.84 µM [rising, partial curve, poor fit] | –
15 | c1ccc(CNc2nc3ccccc3n3cnnc23)cc1 | 17.3 | – | –
16 | O=C(Nc1ccnn1C1CCN(Cc2ccccc2F)CC1)C1CCCC1 | -9.07 | 0.116 µM [falling, full curve, poor fit] | –
17 | Cc1cccc(NC(=O)c2ccccc2O)c1C | -32.8 | 5.17 µM [falling, full curve, poor fit] | 0.517 µM [falling, full curve, poor fit]
18 | O=C(COc1ccc(-c2ccccc2)cc1)N1CCCC1 | -32.3 | 2.06 µM [falling, partial curve] | 13 µM [falling, partial curve]
19 | O=C(N/N=C/c1cccc(Cl)c1Cl)Nc1ccccc1 | 1.81 | 0.461 µM [falling, partial curve] | –
20 | Cn1nc(C(C)(C)C)cc1C(=O)O | -0.62 | – | –
21 | CCOc1ccc(C(F)(F)F)cc1NC(C)=O | 143 | 4.11 µM [rising, partial curve] | 11.6 µM [rising, partial curve]

As entered above:
For cell number change [%], CC(CNC(=O)CN1C(=O)NC2(CCCCC2)C1=O)c1ccccc1 (configuration not stated) reads 4.17
For cell number change [%], Cn1nc(C(C)(C)C)cc1C(=O)O reads -0.62

Following part:

Row | SMILES | cell number change [%] | AC50 [1] | AC50 [2]
22 | CCOC(=O)c1cc(-c2ccccc2)nc2nc(N3CCCCC3)sc12 | -48.6 | 0.461 µM [rising, full curve] | 0.366 µM [falling, partial curve]
23 | COc1ccccc1CNC(=O)C1(C)Oc2cccnc2NC1=O (configuration not stated) | 15.1 | 0.259 µM [rising, partial curve, poor fit] | –
24 | COc1cc(C(=O)N/N=C/c2ccc3c(c2)c2ccccc2n3C)ccc1O | -50.9 | – | 9.2 µM [falling, partial curve]
25 | O=C(Nc1ccc(Cl)cc1)Nc1ccccc1Sc1ncc([N+](=O)[O-])s1 | -64.6 | – | 29.1 µM [falling, single point]
26 | CCCC(=O)N1N=C(c2ccccc2)CC1c1cn(C)c2ccccc12 (configuration not stated) | 42.2 | 18.4 µM [rising, single point] | 10.3 µM [rising, partial curve]
27 | COCCCn1c(-c2cccc(Cl)c2)nc2c1c(=O)[nH]c(=O)n2Cc1ccccc1 | 11.5 | – | –
28 | CCN(CC)c1ccc(CN(C(=O)c2ccco2)C2CCS(=O)(=O)C2)cc1 (configuration not stated) | -1.63 | 29.1 µM [rising, single point] | –
29 | COc1ccc(/C=N/N2CCN(Cc3ccc(C)cc3)CC2)cc1Br | 22.3 | 29.1 µM [rising, single point] | –
30 | OCc1nnn(-c2cccc(C(F)(F)F)c2)c1CO | -25.9 | – | –
31 | Cc1ccc(Cn2c(=O)n(CCC(=O)NCc3ccc4c(c3)OCO4)c(=O)c3ccccc32)cc1 | – | 0.82 µM [rising, full curve] | 1.3 µM [rising, partial curve]
32 | CN(C)c1ccc(CN(CC2CCCO2)C(=O)c2cc3ccccc3o2)cc1 (configuration not stated) | 90.6 | – | 29.1 µM [rising, single point]
33 | O=C(Nc1cccc(C(=O)O)c1)/C(=C\c1ccccc1)NC(=O)c1ccccc1Cl | -18.7 | 32.6 µM [falling, single point] | –
34 | Cc1cc(C)n(Cc2cc(C(=O)O)c3ccccc3n2)n1 | -23.1 | – | –
35 | c1ccc(-c2ccc3c(c2)NC(C2Nc4cc(-c5ccccc5)ccc4O2)O3)cc1 (configuration not stated) | 5.02 | – | –
36 | Cc1cccc(-n2ccnc2CN2CCN(C(C)C)C(CCO)C2)c1 (configuration not stated) | 4.9 | – | 0.00517 µM [rising, full curve, poor fit]
37 | O=C1CCCCC1Sc1nnc(-c2ccc3c(c2)OCO3)o1 (configuration not stated) | 70.8 | 23.1 µM [rising, single point] | 25.9 µM [rising, single point]
38 | Cc1cc(C(=O)OCC(=O)N2CC(C)OC(C)C2)c(C)n1-c1ccccc1 (configuration not stated) | 1.07 | 8.2 µM [rising, partial curve] | –
39 | CCOC(=O)c1c(C)oc2ccc(NS(=O)(=O)c3cccs3)cc12 | -12.6 | 1.46 µM [rising, partial curve] | –
40 | COc1ccc(OC)c(-c2nc3cc4ccccc4cc3nc2-c2ccccc2)c1 | 41.5 | 2.06 µM [rising, full curve] | 0.92 µM [rising, full curve]
41 | COC(=O)c1ccccc1NC(=S)N(Cc1ccc2c(c1)OCO2)Cc1cc2cc(OC)ccc2[nH]c1=O | 19.7 | 0.164 µM [rising, full curve] | –
42 | Cc1sc(NC(=O)c2ccco2)c(C(c2cccnc2)N2CCN(c3ccc(F)cc3)CC2)c1C (configuration not stated) | – | – | 0.116 µM [rising, full curve]

Row | SMILES | cell number change [%] | AC50 [1] | AC50 [2]
43 | CCc1cccc(NC(=S)N2CCC(c3ccccc3)C2)c1 (configuration not stated) | -54.4 | 18.4 µM [falling, partial curve] | 13 µM [falling, partial curve]
44 | CCN(c1ccc(NC(=O)c2ccc(N3CCCC3=O)cc2)cc1)C(C)C | 17.1 | 11.6 µM [rising, partial curve, poor fit] | –
45 | CCOc1ccc(OCC(=O)OCC(=O)NNC(=O)c2ccc([N+](=O)[O-])cc2)cc1 | 11.2 | 18.4 µM [falling, single point] | –
46 | Cc1ccc2nsnc2c1S(=O)(=O)N(CCO)Cc1cc2cc3c(cc2[nH]c1=O)OCCO3 | -35.8 | – | 5.8 µM [falling, full curve, poor fit]
47 | Cc1ccc(C(=O)NC2CC(C)(C)NC(C)(C)C2)c(C)c1 | -20.1 | 0.000651 µM [falling, full curve, poor fit] | –
48 | CCN1CCN(c2ccc(S(=O)(=O)N3CCCCC3)cc2NC(=O)COc2cc(C)ccc2Cl)CC1 | 65.9 | – | 23.1 µM [rising, single point]
49 | Cc1ccc(-n2cc(CNCCCn3ccnc3C)c(-c3ccc(F)cc3)n2)cc1 | 0.242 | – | –
50 | CCn1c(SCC(=O)N2CCCCC2C)nnc1-c1ccc(S(=O)(=O)N2CCN(C)CC2)cc1 (configuration not stated) | 3.72 | 25.9 µM [falling, partial curve] | –
51 | CC(=O)Nc1ccc(C(=O)CN2C(=O)CSC2=O)cc1 | 5.21 | – | –
52 | CC1Sc2ccc(C(=O)N3CCCC(C(F)(F)F)C3)cc2NC1=O (configuration not stated) | 21.8 | – | –
53 | Cc1ccc(C)c(NC(=S)NCCSc2ccc(Cl)cc2)c1 | 1.87 | 29.1 µM [falling, single point] | –
54 | O=C(CSc1nc2ccccc2c(=O)n1Cc1ccccc1)NCc1ccco1 | -12.2 | – | –
55 | COc1ccc(NC(=O)c2c(SC)nsc2SC)cc1 | 62.7 | 4.11 µM [rising, partial curve, poor fit] | 29.1 µM [rising, single point]
56 | CC(C)Oc1ccc(CCC(=O)N/N=C/c2ccncc2)cc1 | 6.9 | 2.91 µM [rising, full curve, poor fit] | 4.61 µM [rising, single point]
57 | C=CCCC(=O)N1CCC(n2nccc2NC(=O)c2ccccc2C)CC1 | -4.4 | – | –
58 | COc1ccc(N(CC(=O)N/N=C(\C)c2ccc(C)cc2)S(=O)(=O)c2ccccc2)cc1 | 15.4 | 20.6 µM [rising, single point] | –
59 | S=c1[nH]nc(-c2cc(-c3ccccc3)n[nH]2)n1/N=C/c1cccs1 | -38.6 | 32.6 µM [falling, single point] | 20.6 µM [falling, single point]
60 | CC1CCc2nc3ccc(S(=O)(=O)N4CCC(C(=O)N5CCCCC5)CC4)cc3c(C(=O)O)c2C1 (configuration not stated) | 24.4 | – | –
61 | Cc1cc(N2CCCCC2)nc(N2CCOCC2)n1 | -26.7 | 23.1 µM [falling, partial curve] | 1.03 µM [falling, full curve]

Some of the entries above in another layout.
Row	SMILES	cell number change [%]	AC50 [1]	AC50 [2]
2	CC(CNC(=O)c1ccc(OC2CCN(Cc3ccccn3)CC2)cc1)Oc1cccnc1 (configuration not stated)	-10.4	–	–
17	Cc1cccc(NC(=O)c2ccccc2O)c1C	-32.8	5.17 µM [falling, full curve, poor fit]	0.517 µM [falling, full curve, poor fit]
18	O=C(COc1ccc(-c2ccccc2)cc1)N1CCCC1	-32.3	2.06 µM [falling, partial curve]	13 µM [falling, partial curve]
44	CCN(c1ccc(NC(=O)c2ccc(N3CCCC3=O)cc2)cc1)C(C)C	17.1	11.6 µM [rising, partial curve, poor fit]	–

Reference: PubChem BioAssay AID2685 (National Center for Advancing Translational Sciences (NCATS), 2010)
